According to US20060239990A1, “Protein Arginine N-Methyltransferase 2 (PRMT-2)” (priority 2003, published 2006):
No constants are given. Whether binding was seen depends on the method and setting. Some entries that bind do so weakly or less than the wild type.

Amino acid sequences for entries named in this document (tags omitted). Residues count along the entry.
UniProt Q04206: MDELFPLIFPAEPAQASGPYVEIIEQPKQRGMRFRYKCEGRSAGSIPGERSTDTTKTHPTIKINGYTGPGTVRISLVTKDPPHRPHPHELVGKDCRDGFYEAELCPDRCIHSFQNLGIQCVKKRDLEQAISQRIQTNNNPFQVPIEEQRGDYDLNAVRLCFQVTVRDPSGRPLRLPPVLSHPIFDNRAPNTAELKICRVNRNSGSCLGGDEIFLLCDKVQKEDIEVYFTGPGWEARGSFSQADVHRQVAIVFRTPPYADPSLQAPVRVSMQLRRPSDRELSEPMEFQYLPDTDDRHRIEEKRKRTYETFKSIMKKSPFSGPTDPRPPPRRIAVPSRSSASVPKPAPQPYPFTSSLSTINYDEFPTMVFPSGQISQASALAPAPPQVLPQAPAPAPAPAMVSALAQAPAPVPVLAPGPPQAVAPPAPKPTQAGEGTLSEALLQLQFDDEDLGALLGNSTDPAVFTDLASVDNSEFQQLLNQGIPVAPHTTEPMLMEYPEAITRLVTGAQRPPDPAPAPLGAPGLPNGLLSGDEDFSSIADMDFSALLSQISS
UniProt P19838, residues 1-433: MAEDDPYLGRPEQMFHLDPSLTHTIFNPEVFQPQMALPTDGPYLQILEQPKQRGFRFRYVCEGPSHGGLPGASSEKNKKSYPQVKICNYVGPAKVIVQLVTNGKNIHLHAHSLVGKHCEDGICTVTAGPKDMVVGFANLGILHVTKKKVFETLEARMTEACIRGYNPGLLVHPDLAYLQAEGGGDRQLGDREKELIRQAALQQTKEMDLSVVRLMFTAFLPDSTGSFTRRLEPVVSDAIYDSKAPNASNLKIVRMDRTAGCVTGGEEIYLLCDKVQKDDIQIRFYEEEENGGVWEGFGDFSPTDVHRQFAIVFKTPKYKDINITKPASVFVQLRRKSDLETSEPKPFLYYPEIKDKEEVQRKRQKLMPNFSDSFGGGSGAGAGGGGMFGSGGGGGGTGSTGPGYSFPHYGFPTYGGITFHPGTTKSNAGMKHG

What was measured:
[1] = molecular target: RelA (p65) in 293 cells (UniProt Q04206); experiment: immunoprecipitation with anti-p65 antibody from transfected 293 cell nuclear extracts, Western blot for p50
[2] = molecular target: RelA (p65) in 293 cells (UniProt Q04206); experiment: immunoprecipitation with p65 antibody from PRMT2 or PRMT2-N transfected 293 whole cell extracts, Western blot for p50

binding [1]: binds | binding [2]: binds
Substance: NF-κB1 (p50) in 293 cells (from UniProt P19838 1-433)
